These are yes or no findings as the source states them, for the method shown. In cells and extracts the contact can be indirect. These calls come from enrichment with a bait or labelling near it, and not all partners need be listed.
Target: 3 × Flag-BTN3A3 (Butyrophilin Subfamily 3 Member A3), expressed in NIH:OVCAR-3 cells (UniProt O00478)
Test: affinity purification with mass spectrometry; 3 × Flag-BTN3A3 transfected into NIH:OVCAR-3 cells; lysate immunoprecipitated with Flag-tag antibody, SDS-PAGE, Coomassie-stained gel cut and analysed by mass spectrometry; control plasmid with 3 × Flag

Chains of the proteins cited; added tags and fusions are not shown. Lines headed by an entry give the natural chain unless they say otherwise; changes in a name come on top. Residues count along the entry.
UniProt O00478, residues 30-584: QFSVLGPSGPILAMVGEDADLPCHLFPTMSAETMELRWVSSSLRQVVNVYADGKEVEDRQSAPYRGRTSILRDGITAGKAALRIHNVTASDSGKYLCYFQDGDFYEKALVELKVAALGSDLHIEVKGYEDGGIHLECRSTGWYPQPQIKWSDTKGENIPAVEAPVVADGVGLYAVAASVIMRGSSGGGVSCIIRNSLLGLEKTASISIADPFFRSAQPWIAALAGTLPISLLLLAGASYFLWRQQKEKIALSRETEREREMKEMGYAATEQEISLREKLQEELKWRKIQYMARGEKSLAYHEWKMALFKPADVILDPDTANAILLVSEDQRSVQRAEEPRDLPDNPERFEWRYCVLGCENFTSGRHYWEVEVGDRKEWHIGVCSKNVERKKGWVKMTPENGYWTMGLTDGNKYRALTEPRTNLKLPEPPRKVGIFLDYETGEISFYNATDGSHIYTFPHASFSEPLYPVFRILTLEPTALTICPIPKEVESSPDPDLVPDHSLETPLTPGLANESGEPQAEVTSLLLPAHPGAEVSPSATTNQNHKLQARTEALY
UniProt P09038: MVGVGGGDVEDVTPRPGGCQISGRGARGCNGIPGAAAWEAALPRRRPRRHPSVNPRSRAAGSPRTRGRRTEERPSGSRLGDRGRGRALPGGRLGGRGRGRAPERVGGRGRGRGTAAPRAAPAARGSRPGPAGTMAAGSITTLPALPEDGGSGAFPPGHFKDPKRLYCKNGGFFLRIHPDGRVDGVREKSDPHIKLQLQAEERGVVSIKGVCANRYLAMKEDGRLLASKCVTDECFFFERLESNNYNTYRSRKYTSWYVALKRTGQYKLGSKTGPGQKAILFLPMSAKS

binding: binds
Substance: Fibroblast Growth Factor 2 (FGF2), endogenous (from UniProt P09038)
